Reference: publication doi:10.1101/2022.09.03.506465
Results are given in words; binding and its absence hold for the method and conditions named. In cells and extracts the contact can be indirect. Some results given as binding are weak or reduced against the parent protein; the word gives no strength. Where a sequence is shown, tags or fusion partners need not be part of it.

Target: T1, SBP-tagged wild-type human TSEN (TSEN2, SBP-TSEN15, TSEN34, TSEN54) (human) (UniProt Q8NCE0+Q8WW01+Q9BSV6+Q7Z6J9)
T1 sequence 1: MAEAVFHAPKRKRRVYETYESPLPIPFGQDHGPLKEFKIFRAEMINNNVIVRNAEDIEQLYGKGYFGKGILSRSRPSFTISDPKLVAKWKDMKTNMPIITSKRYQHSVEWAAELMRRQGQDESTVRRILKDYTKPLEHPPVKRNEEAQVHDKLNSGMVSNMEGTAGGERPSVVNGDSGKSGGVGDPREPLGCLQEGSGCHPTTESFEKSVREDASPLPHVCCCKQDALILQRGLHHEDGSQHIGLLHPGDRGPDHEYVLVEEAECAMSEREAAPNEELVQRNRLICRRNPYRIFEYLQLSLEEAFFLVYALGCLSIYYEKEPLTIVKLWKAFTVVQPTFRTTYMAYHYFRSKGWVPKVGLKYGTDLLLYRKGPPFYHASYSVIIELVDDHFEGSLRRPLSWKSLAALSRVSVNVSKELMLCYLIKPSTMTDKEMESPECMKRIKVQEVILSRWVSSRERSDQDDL
T1 sequence 2: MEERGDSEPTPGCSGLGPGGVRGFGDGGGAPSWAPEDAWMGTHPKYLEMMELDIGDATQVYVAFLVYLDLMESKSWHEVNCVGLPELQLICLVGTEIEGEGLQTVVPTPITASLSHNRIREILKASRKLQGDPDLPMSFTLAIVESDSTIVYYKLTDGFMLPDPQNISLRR
T1 sequence 3: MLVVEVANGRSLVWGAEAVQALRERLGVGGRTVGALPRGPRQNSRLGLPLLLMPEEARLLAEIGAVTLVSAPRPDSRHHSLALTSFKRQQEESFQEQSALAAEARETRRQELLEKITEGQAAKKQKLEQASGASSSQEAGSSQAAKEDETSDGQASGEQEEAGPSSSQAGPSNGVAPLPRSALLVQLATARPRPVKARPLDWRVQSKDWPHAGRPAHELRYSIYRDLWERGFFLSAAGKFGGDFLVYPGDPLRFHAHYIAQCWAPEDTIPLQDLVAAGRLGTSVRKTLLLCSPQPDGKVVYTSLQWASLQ
T1 sequence 4: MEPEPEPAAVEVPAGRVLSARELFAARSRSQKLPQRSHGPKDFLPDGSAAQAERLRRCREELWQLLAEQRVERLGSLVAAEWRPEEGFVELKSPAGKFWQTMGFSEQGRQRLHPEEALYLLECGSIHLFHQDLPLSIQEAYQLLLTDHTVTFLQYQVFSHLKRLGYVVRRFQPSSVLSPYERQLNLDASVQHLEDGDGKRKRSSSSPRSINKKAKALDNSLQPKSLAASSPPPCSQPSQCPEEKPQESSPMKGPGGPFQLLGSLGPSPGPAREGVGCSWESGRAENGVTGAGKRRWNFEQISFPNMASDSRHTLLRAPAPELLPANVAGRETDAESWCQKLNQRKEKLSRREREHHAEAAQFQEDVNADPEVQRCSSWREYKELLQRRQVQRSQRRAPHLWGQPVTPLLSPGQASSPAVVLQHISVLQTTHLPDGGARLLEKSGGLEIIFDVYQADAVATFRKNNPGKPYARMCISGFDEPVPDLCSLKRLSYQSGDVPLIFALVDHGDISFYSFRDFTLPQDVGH
Experiment: pull-down

- binding: binds
B1: MBP-CLP1 (MBP-TEV-CLP1 construct of the RNA kinase CLP1) (enzyme, UniProt Q92989 1-425)
chain: MGEEANDDKKPTTKFELERETELRFEVEASQSVQLELLTGMAEIFGTELTRNKKFTFDAGAKVAVFTWHGCSVQLSGRTEVAYVSKDTPMLLYLNTHTALEQMRRQAEKEEERGPRVMVVGPTDVGKSTVCRLLLNYAVRLGRRPTYVELDVGQGSVSIPGTMGALYIERPADVEEGFSIQAPLVYHFGSTTPGTNIKLYNKITSRLADVFNQRCEVNRRASVSGCVINTCGWVKGSGYQALVHAASAFEVDVVVVLDQERLYNELKRDLPHFVRTVLLPKSGGVVERSKDFRRECRDERIREYFYGFRGCFYPHAFNVKFSDVKIYKVGAPTIPDSCLPLGMSQEDNQLKLVPVTPGRDMVHHLLSVSTAEGTEENLSETSVAGFIVVTSVDLEHQVFTVLSPAPRPLPKNFLLIMDIRFMDLK
